This is an account of results in PMC12818255.

The target of this test is T1, neurofascin (NFASC) (human (endogenous in sNF96.2)) (UniProt O94856).
T1 sequence: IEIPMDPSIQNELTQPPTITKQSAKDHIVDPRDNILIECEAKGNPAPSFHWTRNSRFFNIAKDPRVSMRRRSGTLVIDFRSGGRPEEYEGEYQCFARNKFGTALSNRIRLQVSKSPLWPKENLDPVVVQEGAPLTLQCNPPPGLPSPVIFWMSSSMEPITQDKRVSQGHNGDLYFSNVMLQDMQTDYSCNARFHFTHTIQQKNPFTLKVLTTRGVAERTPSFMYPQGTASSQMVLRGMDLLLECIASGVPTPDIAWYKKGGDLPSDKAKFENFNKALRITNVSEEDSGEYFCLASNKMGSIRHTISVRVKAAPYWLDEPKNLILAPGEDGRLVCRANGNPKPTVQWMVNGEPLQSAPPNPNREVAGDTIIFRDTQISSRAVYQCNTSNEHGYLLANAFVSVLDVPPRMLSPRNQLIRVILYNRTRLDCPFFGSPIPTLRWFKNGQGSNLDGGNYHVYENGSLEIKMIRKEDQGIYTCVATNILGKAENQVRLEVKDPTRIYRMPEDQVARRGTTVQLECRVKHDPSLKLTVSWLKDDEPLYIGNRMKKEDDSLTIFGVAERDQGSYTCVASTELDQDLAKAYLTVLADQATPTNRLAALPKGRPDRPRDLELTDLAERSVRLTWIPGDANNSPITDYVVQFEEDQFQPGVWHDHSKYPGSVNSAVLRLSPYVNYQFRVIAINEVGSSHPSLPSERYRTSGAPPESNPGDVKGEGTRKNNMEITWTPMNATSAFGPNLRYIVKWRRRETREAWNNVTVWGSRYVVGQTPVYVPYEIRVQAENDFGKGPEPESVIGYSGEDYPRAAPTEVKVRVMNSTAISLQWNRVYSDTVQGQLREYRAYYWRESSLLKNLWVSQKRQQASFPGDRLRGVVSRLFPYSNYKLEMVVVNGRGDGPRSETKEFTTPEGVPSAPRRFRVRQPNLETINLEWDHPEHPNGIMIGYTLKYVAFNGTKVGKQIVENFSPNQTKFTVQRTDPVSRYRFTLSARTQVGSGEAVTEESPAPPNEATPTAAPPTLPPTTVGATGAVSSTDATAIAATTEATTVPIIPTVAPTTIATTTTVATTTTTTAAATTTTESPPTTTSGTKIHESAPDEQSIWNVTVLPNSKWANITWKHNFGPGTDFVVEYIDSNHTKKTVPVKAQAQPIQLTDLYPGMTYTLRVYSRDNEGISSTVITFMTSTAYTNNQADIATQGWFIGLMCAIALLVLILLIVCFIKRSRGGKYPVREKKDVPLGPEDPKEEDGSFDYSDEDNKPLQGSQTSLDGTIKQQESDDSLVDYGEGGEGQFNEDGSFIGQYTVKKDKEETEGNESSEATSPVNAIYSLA
The experiment in a line: co-IP; lysate of SCs (sNF96.2) in IP lysis buffer with protease and phosphatase inhibitors; 1 ug anti-NFASC antibody or IgG overnight at 4 °C; Protein A/G magnetic beads; Western blotting for CNTNAP2. For orientation: A western blot detects proteins with antibodies after separation by electrophoresis.

Results are given in words; binding and its absence hold for the method and conditions named. Binding seen in cells or lysates may run through a third protein. Some entries that bind do so weakly or less than the wild type.

B1: contactin-associated protein-like 2 (CNTNAP2) (protein, UniProt Q9UHC6 28-1331)
chain: APSTSQKCDEPLVSGLPHVAFSSSSSISGSYSPGYAKINKRGGAGGWSPSDSDHYQWLQVDFGNRKQISAIATQGRYSSSDWVTQYRMLYSDTGRNWKPYHQDGNIWAFPGNINSDGVVRHELQHPIIARYVRIVPLDWNGEGRIGLRIEVYGCSYWADVINFDGHVVLPYRFRNKKMKTLKDVIALNFKTSESEGVILHGEGQQGDYITLELKKAKLVLSLNLGSNQLGPIYGHTSVMTGSLLDDHHWHSVVIERQGRSINLTLDRSMQHFRTNGEFDYLDLDYEITFGGIPFSGKPSSSSRKNFKGCMESINYNGVNITDLARRKKLEPSNVGNLSFSCVEPYTVPVFFNATSYLEVPGRLNQDLFSVSFQFRTWNPNGLLVFSHFADNLGNVEIDLTESKVGVHINITQTKMSQIDISSGSGLNDGQWHEVRFLAKENFAILTIDGDEASAVRTNSPLQVKTGEKYFFGGFLNQMNNSSHSVLQPSFQGCMQLIQVDDQLVNLYEVAQRKPGSFANVSIDMCAIIDRCVPNHCEHGGKCSQTWDSFKCTCDETGYSGATCHNSIYEPSCEAYKHLGQTSNYYWIDPDGSGPLGPLKVYCNMTEDKVWTIVSHDLQMQTPVVGYNPEKYSVTQLVYSASMDQISAITDSAEYCEQYVSYFCKMSRLLNTPDGSPYTWWVGKANEKHYYWGGSGPGIQKCACGIERNCTDPKYYCNCDADYKQWRKDAGFLSYKDHLPVSQVVVGDTDRQGSEAKLSVGPLRCQGDRNYWNAASFPNPSSYLHFSTFQGETSADISFYFKTLTPWGVFLENMGKEDFIKLELKSATEVSFSFDVGNGPVEIVVRSPTPLNDDQWHRVTAERNVKQASLQVDRLPQQIRKAPTEGHTRLELYSQLFVGGAGGQQGFLGCIRSLRMNGVTLDLEERAKVTSGFISGCSGHCTSYGTNCENGGKCLERYHGYSCDCSNTAYDGTFCNKDVGAFFEEGMWLRYNFQAPATNARDSSSRVDNAPDQQNSHPDLAQEEIRFSFSTTKAPCILLYISSFTTDFLAVLVKPTGSLQIRYNLGGTREPYNIDVDHRNMANGQPHSVNITRHEKTIFLKLDHYPSVSYHLPSSSDTLFNSPKSLFLGKVIETGKIDQEIHKYNTPGFTGCLSRVQFNQIAPLKAALRQTNASAHVHIQGELVESNCGASPLTLSPMSSATDPWHLDHLDSASADFPYNPGQGQAIRNGVNRNSAIIGGVIAVVIFTILCTLVFLIRYMFRHKGTYHTNEAKGAESAESADAAIMNNDPNFTETIDESKKEWLI
As to B1, the binding entry is “binds”.
